We go through 63 molecules from PubChem BioAssay AID493014 (National Center for Advancing Translational Sciences (NCATS), 2011).

Some of the results follow. Shown are side measurements of this screen, not its main read-out; they come without a call. Most of these compounds were active or inconclusive in the main read-out, so they are no random draw. The note in brackets gives the kind of curve behind each potency; many fits are weak.

The nature of this test: qHTS Assay to Find Inhibitors of Chronic Active B-Cell Receptor Signaling. Conditions: ABC-DLBCL IkBa-CBG/CBR reporter, luminescence ratio (green luciferase fused to IkBa over red control in TMD8 lymphoma cells), 4 h. The method in brief: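 Concentration-response series (up to 46 uM) were applied to TMD8 dual-reporter cells for 4 h at 37C with doxycycline. Green/red ratio, after filter-overlap correction, defined %Activity; red signal alone was normalised to basal cells and zero luminescence.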
In general terms: In qHTS, concentration-response curves come from the screen itself.

The mark [1] stands for this setting: measured here: CBR red luminescence, cell number.
[2] abbreviates: measured here: IkBa-CBG green luminescence.

`CCN(CC)C(=O)c1ccc(-c2nnc(OC)c3ccccc23)cc1`: under setting [1], the AC50 – broadly, the concentration at which the activity in the assay is half-maximal – is 35.5 µM [rising, single point].

On to `COc1ccccc1NC(=O)N1CCN(C)CC1`, for which the AC50 under setting [1] is 14.1 µM [rising, partial curve, poor fit].

Regarding `O=S(=O)(c1c(Cl)sc(Cl)c1Br)N1CCCC1`, the AC50 under setting [1] is 7.08 µM [rising, full curve, poor fit].

As for `O=[N+]([O-])c1cc(-c2ncccn2)c([N+](=O)[O-])s1`, the AC50 under setting [1] was 18.4 µM [falling, partial curve].

On to `O=C(/C=C/c1ccccc1)NCC(=O)N/N=C/c1ccccc1[N+](=O)[O-]`, for which, under setting [1], the AC50 was 11.2 µM [rising, partial curve, poor fit].

Consider `Cc1cc(C)n2c(SCCC(C)C)nnc2n1`, for which, under setting [1], the concentration at half-maximal activity (AC50) was 0.562 µM [rising, full curve, poor fit].

Consider `Cc1cccc(OCCC(=O)Nc2ccccc2C(N)=O)c1`, for which the AC50 under setting [1] is 10 µM [falling, partial curve, poor fit].

On to `CCCCc1nnc(NC(=O)C2CCCO2)s1` (stereo not given), for which the AC50 under setting [1] was 6.51 µM [falling, single point].

In the case of `N#Cc1cccc2c1-c1ccccc1/C2=N/NC(N)=S`, the AC50 is 2.82 µM [rising, partial curve, poor fit] under setting [1] and 2.51 µM [falling, partial curve, poor fit] under setting [2].

Take `CC(=O)Nc1ccc(-c2ccc(NC(C)=O)c(O)c2)cc1O`: the AC50 under setting [1] is 20 µM [rising, partial curve, poor fit].

Turning to `O=C(NCCN1CCOCC1)C1CCN(Cc2ccccc2O)CC1`, the AC50 under setting [1] was 0.92 µM [rising, full curve, poor fit].

Regarding `CCOC(=O)Nc1ccc([N+](=O)[O-])cc1C`, under setting [1], the AC50 is 3.66 µM [rising, full curve, poor fit].

Consider `CN(C)c1ccc(N=Cc2nc(-c3ccccc3)oc2OC(=O)c2cccc(Cl)c2)cc1`, for which the AC50 under setting [1] was 5.17 µM [falling, full curve].

As for `O=C(N/C(=C/c1cccc(Br)c1)c1nc(=S)[nH][nH]1)c1ccccc1`, under setting [1], the AC50 was 2.06 µM [rising, full curve, poor fit].

As to `COc1ccc(CC(=O)N/N=C(\C)c2ccccn2)cc1`, the AC50 under setting [1] is 0.651 µM [falling, partial curve, poor fit].

Consider `O=C(c1ccccc1)c1cc(-c2ccccc2)on1`, for which, under setting [1], the AC50 was 32.6 µM [falling, single point].

For the molecule `Cc1ccc(S(=O)(=O)NC(Cc2ccccc2)C(=O)NN)cc1` (stereo not given), the half-maximal activity concentration (AC50) under setting [1] was 6.31 µM [falling, single point].

Take `Cc1nc2c(ccc3nc(NC(=O)C4CC4)sc32)s1`: the half-maximal activity concentration (AC50) under setting [1] is 7.08 µM [falling, full curve].

`COC(=O)[C@@H](NCc1cccc(CN([C@H](C(=O)OC)C(C)C)S(C)(=O)=O)c1)C(C)C`: under setting [1], the concentration at half-maximal activity (AC50) is 35.5 µM [falling, partial curve, poor fit].

As for `COc1ccc(-c2cc(COc3ccccc3)on2)cc1`, under setting [1], the AC50 was 2.24 µM [rising, partial curve, poor fit].

`COCc1cc(C)nc(Sc2nc3c(c(=O)n(C)c(=O)n3C)n2C)c1C#N`: the half-maximal activity concentration (AC50) under setting [1] was 2.82 µM [falling, partial curve, poor fit].

Regarding `COc1ccccc1OCCNC(=O)c1ccc(Br)cc1`, the AC50 under setting [1] is 22.4 µM [falling, single point].

Take `Cn1c(SCc2nnc(-c3ccccc3Br)o2)nc2sc3c(c2c1=O)CCC3`: the AC50 under setting [1] was 10 µM [falling, partial curve].

As for `N#C/C(=C\c1ccc(OC(=O)c2ccc(Cl)s2)cc1)c1nc2ccccc2[nH]1`, under setting [1], the AC50 is 3.26 µM [rising, full curve, poor fit].

For `CCc1ccc(C2=NN(C(=O)OC)C(O)(C(F)(F)F)C2)cc1` (stereo not given), the AC50 under setting [1] was 7.94 µM [rising, partial curve].

For the molecule `CC(=O)NCCOc1nc(N2CCCCC2)nc(N2CCCCC2)n1`, under setting [1], the AC50 was 20 µM [falling, partial curve, poor fit].

Turning to `CCOc1ccccc1CNC(=O)C1CCCN(c2nn3c(=O)cc(C)nc3s2)C1` (stereo not given), the AC50 under setting [1] is 0.2 µM [rising, full curve, poor fit].

With `COc1ccc(-c2nc3sc(CCNC(=O)C(=O)Nc4cccc(NC(C)=O)c4)c(C)n3n2)cc1`, the half-maximal activity concentration (AC50) under setting [1] is 11.2 µM [falling, single point].

In the case of `COc1ccc(C)cc1NC(=O)CN1CCCC1c1ccc2c(c1)OCCCO2` (stereo not given), the half-maximal activity concentration (AC50) under setting [2] is 0.164 µM [falling, partial curve, poor fit].

For `O=C(CSc1ncc(-c2ccccc2)n1C1CCCC1)N1CCc2ccccc21`, under setting [1], the AC50 is 2.82 µM [rising, full curve, poor fit].

Turning to `CCc1nnc(NC(=O)CSc2nc3cc(OC)c(OC)cc3cc2C)s1`, the AC50 under setting [1] is 25.1 µM [falling, single point].

In the case of `CSc1cccc(NS(=O)(=O)c2ccc3c(c2)CCN3C(C)=O)c1`, the AC50 under setting [1] is 0.398 µM [falling, full curve, poor fit].

Consider `O=C(CN1CCN(CCC(=O)Nc2ccccc2F)CC1)Nc1ccc(Cl)cc1`, for which the AC50 under setting [1] is 0.0891 µM [falling, full curve, poor fit].

`CCOC(=O)N1CCN(CCC(=O)Nc2cc(C)ccc2OC)CC1`: under setting [1], the AC50 is 35.5 µM [rising, partial curve, poor fit].

Consider `CNCCC1Sc2ccccc2Oc2ccccc21` (stereo not given), for which the AC50 under setting [1] was 7.08 µM [falling, partial curve, poor fit].

Regarding `COc1ccc2oc(C(=O)N3CCN(C(c4ccccc4)c4ccccc4)CC3)c(C)c2c1`, under setting [1], the AC50 is 2.06 µM [falling, partial curve, poor fit].

With `O=S(=O)(O/N=C1\CCCc2ccccc21)c1ccc(Cl)cc1`, the AC50 under setting [1] is 6.51 µM [rising, single point].

Take `CCN(C(=O)COC(=O)c1ccc(COc2ccc3c(C)cc(=O)oc3c2)cc1)C1CCS(=O)(=O)C1` (stereo not given): the AC50 under setting [1] is 7.94 µM [falling, partial curve].

On to `CCOC(=O)c1c(-c2ccc(Cl)cc2)csc1NC(=O)CNCc1ccco1`, for which, under setting [1], the AC50 was 35.5 µM [falling, single point].

Consider `C=CCOC(=O)C1=C(C)NC(=O)NC1/C=C/c1ccccc1OC` (stereo not given), for which the AC50 under setting [1] was 8.91 µM [falling, partial curve, poor fit].

For `COc1ccc(-c2nnc(SC)n2C)cc1`, the AC50 under setting [1] was 0.708 µM [rising, full curve, poor fit].

As to `Cc1ccc2c(c1)c(C)c(C)n2CC(O)Cn1nc(C)c(Br)c1C` (stereo not given), the AC50 under setting [1] was 35.5 µM [falling, single point].

For `Cc1cccc(NC(=O)Cn2c(O)c(N=NC(=O)c3ccccc3O)c3ccccc32)c1`, the AC50 under setting [1] is 1.84 µM [falling, full curve].

For the molecule `CCOC(=O)c1cc(=O)n2nc(-c3ccccc3F)nc2s1`, the AC50 under setting [1] is 1.16 µM [rising, full curve].

Turning to `C/C(=N/NC(=S)Nc1ccccc1)c1ccc2c(c1)OCO2`, under setting [1], the AC50 is 18.4 µM [falling, single point].

Turning to `Cc1nc(Sc2ccccc2)c(C#N)cc1-c1ccccc1`, the AC50 under setting [1] is 2 µM [rising, full curve, poor fit].

`O=C(CN1C(=O)CCC1=O)Nc1nc(-c2ccccn2)cs1`: under setting [1], the AC50 was 5.17 µM [falling, partial curve, poor fit].

On to `COc1cc(OC)cc(C(=O)n2nc(C)cc2C)c1`, for which the AC50 under setting [1] is 5.8 µM [rising, full curve, poor fit].

For `CCOC(=O)CC1C(=O)NCCN1C(=O)c1ccc(Cl)cc1` (stereo not given), the AC50 under setting [1] was 35.5 µM [rising, single point].

Turning to `C#CCOCCOCCOCCNc1nc(N2CCN(C(=O)[C@H](CCCCN)n3cc(CN)nn3)CC2)nc(N2CCN(C(=O)[C@H](CCCN=C(N)N)n3cc(C(N)[C@H](C)CC)nn3)CC2)n1` (stereo not given in full), the AC50 under setting [1] was 29.1 µM [rising, single point].

In the case of `O=C(c1cnn2cccnc12)N1CCN(c2ccccc2)CC1`, the concentration at half-maximal activity (AC50) under setting [1] is 2.31 µM [rising, single point].

With `Nn1c(SCc2cn3ccsc3n2)nnc1-c1ccncc1`, the half-maximal activity concentration (AC50) under setting [1] was 29.1 µM [rising, single point].

As for `O=C(NC1CC1)C1CCN(c2ccc(S(=O)(=O)N3CCOCC3)cc2)CC1`, the concentration at half-maximal activity (AC50) under setting [1] is 23.1 µM [falling, single point].

With `COc1ccc(-c2cn3nc(N4CCCC(C(=O)NCc5ccc(Cl)cc5)C4)sc3n2)cc1` (stereo not given), under setting [1], the AC50 is 7.08 µM [rising, full curve, poor fit].

In the case of `Cc1occc1C(=O)NNC(=O)CN1C(=O)NC(C)(c2ccccc2)C1=O` (stereo not given), under setting [1], the AC50 is 5.17 µM [falling, single point].

Take `COC(=O)COc1ccc2c(-c3ccc(OC)cc3)cc(=O)oc2c1`: the AC50 under setting [1] was 7.31 µM [falling, partial curve, poor fit].

With `Cc1ccc(CN2C(=O)c3ccccc3Sc3ccc(C(=O)NCCN4CCOCC4)cc32)cc1`, the AC50 under setting [1] was 28.2 µM [falling, single point].

For the molecule `CCOC(=O)Cn1nc(/C=C/c2ccccc2)ccc1=O`, the AC50 under setting [1] is 0.178 µM [rising, full curve, poor fit].

In the case of `CCN1C(=O)[C@H]2[C@@H](c3ccc(C)cc3)N3C(=O)N(c4cccc(Cl)c4)C(=O)[C@@]3(Cc3ccc(Cl)cc3)[C@H]2C1=O`, the AC50 under setting [1] was 13 µM [falling, partial curve, poor fit].

As for `COC(=O)c1sccc1NC(=O)c1cccc(OC)c1`, the AC50 under setting [1] was 20.6 µM [falling, single point].

On to `O=C(Nc1ccc(N2CCCC(O)C2)cc1)c1snc2c(=O)[nH]cnc12` (stereo not given), for which the AC50 under setting [1] is 0.82 µM [falling, partial curve, poor fit].

As to `CCc1cc(=O)oc2cc(C)cc(OC(=O)c3ccco3)c12`, the AC50 is, setting by setting: under setting [1], 29.1 µM [rising, single point]; under setting [2], 20.6 µM [falling, single point].

In the case of `Nn1c(Cc2ccccc2)n[nH]c1=S`, the AC50 under setting [1] was 3.16 µM [rising, single point].
